# This is one part of the list. The main result of the screen is listed elsewhere. These columns were measured beside it and carry no call. The list favours compounds with an active or inconclusive main result. Words in brackets tell the shape of the fitted curve; partial curves, single points and poor fits give uncertain potencies.
# Assay: qHTS Assay for Lipid Storage Modulators in Drosophila S3 Cells;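 on cell number change: cells counted by Cell Tracker Red CMTPX staining in the red channel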
# Details: BODIPY lipid droplet fluorescence, 18-24 h; for cell number change: measured here: cell count max response, cells fed with added oleic acid
# Outline: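 Drosophila S3 cells got compounds at several concentrations plus oleic acid (400 uM solution). Laser-scanning cytometry with 488 nm excitation read lipid droplets at 500-530 nm and cells at 575-640 nm. Percent activity was relative to 20 uM Triacsin C.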
# [1] = measured here: lipid fluorescence (Fed channel) AC50, cells fed with added oleic acid
# [2] = measured here: cell number channel AC50, cells fed with added oleic acid
SMILES,cell number change,AC50 [1],AC50 [2]
Cc1ccc2[nH]ccc(=O)c2c1,-10.7%,"3.26 µM [falling, single point]",
Cc1nc2ccc(Br)cn2c(=O)c1Cl,2.2%,,
O=S1(=O)CCC(NS(=O)(=O)c2cccc3cccnc23)C1 (stereo not drawn),-18.7%,"0.58 µM [falling, full curve]",
COc1ccc2nc(/N=C(\N)NC(=O)N3c4ccccc4Sc4ccccc43)nc(C)c2c1,-4.4%,"29.1 µM [falling, partial curve]",
CC1=Nn2c(nc(-c3ccccc3)c2-c2ccccc2)NC(=O)C1Br (stereo not drawn),-7.79%,"6.51 µM [rising, single point]",
CC(/C=N/n1c(-c2cc(C)[nH]n2)n[nH]c1=S)=C\c1ccccc1,-19.7%,"1.16 µM [rising, partial curve]",
Cc1nc(CN(C)C(=O)CC2C(=O)NCCN2Cc2ccc(-c3ccccc3)cc2)cs1 (stereo not drawn),21.6%,"29.1 µM [falling, single point]",
CCOc1ccc(NC(=O)COC(=O)c2cc([N+](=O)[O-])ccc2N2CCOCC2)cc1,,"0.731 µM [rising, full curve]","0.58 µM [rising, full curve]"
COc1ccccc1OCc1nc2ccccc2[nH]1,,,"2.31 µM [rising, partial curve]"
CCOC(=O)NC(Nc1cc(C)ccn1)(C(F)(F)F)C(F)(F)F,-0.549%,"29.1 µM [falling, single point]",
CCc1c(SCCC(=O)O)nc2ccccc2c1C,32.1%,,"23.1 µM [rising, partial curve, poor fit]"
CCNc1nc2c(c(=O)n(C)c(=O)n2C)n1Cc1ccc(Cl)cc1,-11.4%,"6.51 µM [rising, single point]",
O=C(NCc1ccccc1)C1CCCN(c2cnccn2)C1 (stereo not drawn),-17.6%,,"0.116 µM [falling, full curve, poor fit]"
CC(=O)c1cccc(NC(=O)Nc2nc(C)cc(C)n2)c1,0.54%,,
C=CCOc1ccc(Cl)cc1CNC1CCCC1,,"0.00461 µM [falling, full curve, poor fit]","0.731 µM [falling, full curve, poor fit]"
COc1ccc(C(=O)/C(C#N)=N/Nc2ccc([N+](=O)[O-])cc2)cc1,14%,,
CCCCCN(C(=O)CCC(=O)OCC(=O)c1ccc(CCC)cc1)c1c(N)n(CCCC)c(=O)[nH]c1=O,37.1%,"29.1 µM [rising, single point]","0.461 µM [rising, full curve, poor fit]"
Cc1ccc(Cn2c(SCC(=O)N/N=C/c3ccccc3OCC(=O)O)nc3ccccc32)cc1,36.4%,,"0.517 µM [rising, full curve, poor fit]"
O=C1CN(C(=O)CSc2nncs2)c2ccccc2N1,23.3%,"2.59 µM [rising, partial curve]",
CC(C)C(c1nnnn1Cc1ccco1)N1CCN(C2CCCC2)CC1 (stereo not drawn),23.7%,,"0.00461 µM [rising, full curve, poor fit]"

SMILES,cell number change,AC50 [1],AC50 [2]
O=C(OCC(=O)N1CCN(S(=O)(=O)c2ccc(Cl)cc2)CC1)c1cccc(OC(F)F)c1,2.56%,,
COc1ccccc1C(=O)Nc1ccc(OCC(=O)N2CCCCC2C)cc1 (stereo not drawn),20%,"0.082 µM [rising, full curve]",
NC(=NCCc1ccccc1)NS(=O)(=O)c1ccccc1F,-8.96%,"0.731 µM [rising, single point]",
Nc1n[nH]c(N)c1N=Nc1ccccc1,-3.98%,"6.51 µM [falling, single point]",
Cc1ccc(C)c(N2CCN(C(=O)c3ccc(N4CCOCC4)c([N+](=O)[O-])c3)CC2)c1,32.9%,,"20.6 µM [rising, single point]"
COCCNC(=O)CN1C(=O)/C(=C/c2ccccc2)Oc2ccc(C(C)(C)C)cc21,-62.3%,"4.61 µM [falling, partial curve]","6.51 µM [falling, partial curve]"
Cc1ccnc(SCCn2c(N3CCN(C)CC3)nc3c2c(=O)[nH]c(=O)n3C)n1,-51%,"29.1 µM [falling, single point]","29.1 µM [falling, single point]"
CONc1nc(NC(C)(C)C)nc(OCC#N)n1,39.7%,,"32.6 µM [rising, single point]"
Cc1ccccc1N1CCN(C2CCCN(C(=O)c3csc(C(C)C)n3)C2)CC1 (stereo not drawn),-21.3%,,"3.26 µM [rising, single point]"
O=C(Nc1ccccc1)Nc1ccccc1C(=O)NCc1ccccc1,,"0.731 µM [rising, single point]",
CCSc1nnc(N2C(=O)c3ccc(C(=O)c4ccc(C(=O)O)cc4)cc3C2=O)s1,-0.787%,"18.4 µM [rising, partial curve]",
COc1ccc(C2=NN(C(=O)CSc3cn(C)c4ccccc34)C(c3ccc(OC)cc3)C2)cc1 (stereo not drawn),,"1.84 µM [rising, partial curve]",
CCCCCC(=O)Nc1nc(C)c(-c2csc(Nc3cc(OC)ccc3OC)n2)s1,,"2.06 µM [rising, partial curve, poor fit]",
NS(=O)(=O)c1ccc(N/C=C\C(=O)c2cccc3ccccc23)cc1,25.4%,"0.206 µM [rising, partial curve]",
CCCCn1c(=O)c(C(=O)c2ccccc2)nc2ccccc21,42.4%,"29.1 µM [rising, single point]","32.6 µM [rising, single point]"
CC(=O)c1c(C(C)=O)c(C)n(-c2nc(-c3cccs3)c(C)s2)c1C,,"6.51 µM [rising, partial curve]","6.51 µM [rising, single point]"
CCn1ccc2c(OCC(=O)NCCc3ccc(OC)c(OC)c3)cccc2c1=O,-39%,,
O=C(COc1ccccc1/C=C1\SC(=O)NC1=O)Nc1ccc(F)cc1,11.5%,,
Brc1ccc(C2=Nn3c(nnc3-c3cccnc3)SC2)s1,-19.6%,,
Cc1ccc2[nH]c(=O)c(CN(CCN3CCOCC3)C(=O)Nc3ccc(F)cc3)cc2c1,57.9%,"0.58 µM [rising, full curve, poor fit]","13 µM [rising, partial curve]"

# 4 entries picked at random from the list so far, as already listed:
SMILES,cell number change,AC50 [1],AC50 [2]
Cc1ccc2[nH]c(=O)c(CN(CCN3CCOCC3)C(=O)Nc3ccc(F)cc3)cc2c1,57.9%,"0.58 µM [rising, full curve, poor fit]","13 µM [rising, partial curve]"
CCCCn1c(=O)c(C(=O)c2ccccc2)nc2ccccc21,42.4%,"29.1 µM [rising, single point]","32.6 µM [rising, single point]"
COc1ccc2nc(/N=C(\N)NC(=O)N3c4ccccc4Sc4ccccc43)nc(C)c2c1,-4.4%,"29.1 µM [falling, partial curve]",
CC1=Nn2c(nc(-c3ccccc3)c2-c2ccccc2)NC(=O)C1Br (stereo not drawn),-7.79%,"6.51 µM [rising, single point]",

# Going on with the list:

SMILES,cell number change,AC50 [1],AC50 [2]
CCOC(=O)c1sc2nc(CC(=O)OC)nc(NCc3ccco3)c2c1C,124%,"1.03 µM [rising, full curve]","6.51 µM [rising, partial curve]"
O=C(CSCc1ccc(Br)cc1)N=Nc1c(O)[nH]c2ccccc12,13.3%,,
CCSc1nsc(NC(=O)Nc2cccc(C(C)=O)c2)n1,-40.5%,"14.6 µM [falling, single point]","18.4 µM [falling, single point]"
CCOC(=O)c1c(C(C)(C)C)oc2ccc(OCC#N)cc12,6.3%,"1.46 µM [rising, partial curve]","5.8 µM [rising, partial curve, poor fit]"
CC1(c2ccccc2)NC(=O)N(CC(=O)NC(=O)NC2CCCC2)C1=O (stereo not drawn),92.1%,"29.1 µM [rising, single point]","23.1 µM [rising, single point]"
Cc1ccc(-n2c(SCC(=O)Nc3ccc4c(c3)OCO4)nnc2-c2cccs2)cc1,,"6.51 µM [rising, single point]",
CCOC(=O)Cn1c(=O)c2c(nc3n2CCN3Cc2ccccc2)n(C)c1=O,15.5%,"6.51 µM [rising, single point]","0.259 µM [rising, full curve, poor fit]"
COc1ccc(OC)c(NC(=O)CCNS(=O)(=O)c2cccc3nsnc23)c1,,,"0.058 µM [falling, full curve, poor fit]"
Cc1c(Cl)cccc1NC(=O)CSc1sc2c(O)cc(=O)[nH]c2c1C#N,-5.65%,,
O=C(COc1ccccc1)Nc1nn[nH]n1,-4.23%,"0.058 µM [falling, full curve]",
COC(=O)[C@@]1(Cc2ccc(OC)cc2)[C@H]2c3cc(C(=O)N4CCCC4)n(Cc4ccc(C)o4)c3C[C@H]2CN1C(=O)c1ccccc1,-9.46%,"29.1 µM [falling, single point]",
CCC1(c2ccc(F)cc2)NC(=O)N(CC(=O)Nc2ccc(S(N)(=O)=O)cc2)C1=O (stereo not drawn),-84.8%,"23.1 µM [falling, partial curve]","29.1 µM [falling, single point]"
CCc1ccc(C(=O)COC(=O)CNC(=O)c2cccs2)cc1,-9.59%,,"6.51 µM [falling, single point]"
CCOc1ccccc1N1CCN(C(=O)c2ccc(S(=O)(=O)Nc3ccccc3)cc2)CC1,-38.3%,"5.8 µM [falling, partial curve, poor fit]","25.9 µM [falling, single point]"
Cn1nnnc1SCCNCc1cc(Cl)ccc1OCc1ccccc1,,"29.1 µM [falling, single point]",
Fc1cccc(-n2c(-c3ccco3)nc3nc4ccccc4nc32)c1,12.1%,,
CN(C)c1nnnn1-c1ccc(Oc2ccccc2)cc1,20.6%,,
NS(=O)(=O)c1ccc(CCNC(=O)CCCCCNc2nc(=S)[nH]c3ccccc23)cc1,6.37%,"0.461 µM [rising, full curve, poor fit]",

# From PubChem BioAssay AID2685 (National Center for Advancing Translational Sciences (NCATS), 2010)
